Values quoted from earlier work in patent US8999974B2, “Acyl piperazine derivatives as TTX-S blockers” (Raqualia Pharma Inc., priority 2010, dated 2015).
Some of these results come from one statement about several compounds together.

Tested on: tetrodotoxin-resistant (TTX-R) and TTX-S sodium channels
Conditions: range over both channel types, units printed in the value (microM to mM); cited from earlier work

Question: For FC(F)(F)C(Cl)Br (stereo not shown) [halothane], which IC50 is on record?
Answer: 0.05 to 10 mM
